# In paper PMC6868891:
# These are yes or no findings as the source states them, for the method shown. Binding seen in cells or lysates may run through a third protein. Some entries that bind do so weakly or less than the wild type. Tags and fused reporters may be left off the sequences shown.
# T1: REC8-EGFP (UniProt O95072)
# T1 sequence: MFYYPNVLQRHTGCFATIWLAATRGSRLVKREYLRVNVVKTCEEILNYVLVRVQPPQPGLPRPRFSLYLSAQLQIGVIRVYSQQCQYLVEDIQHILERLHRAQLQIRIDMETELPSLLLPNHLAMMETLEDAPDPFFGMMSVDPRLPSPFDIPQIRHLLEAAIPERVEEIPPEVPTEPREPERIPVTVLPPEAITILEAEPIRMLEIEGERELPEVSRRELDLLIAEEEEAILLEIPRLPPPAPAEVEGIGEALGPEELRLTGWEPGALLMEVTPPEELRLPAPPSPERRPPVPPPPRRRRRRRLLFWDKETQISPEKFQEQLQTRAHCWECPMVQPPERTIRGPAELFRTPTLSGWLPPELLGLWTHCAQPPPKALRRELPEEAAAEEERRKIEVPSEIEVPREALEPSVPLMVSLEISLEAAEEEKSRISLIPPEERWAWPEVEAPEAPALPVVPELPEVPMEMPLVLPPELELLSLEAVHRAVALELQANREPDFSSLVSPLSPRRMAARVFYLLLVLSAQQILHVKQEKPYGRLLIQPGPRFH
# T2: SMC1A-HA (UniProt Q14683)
# T2 sequence: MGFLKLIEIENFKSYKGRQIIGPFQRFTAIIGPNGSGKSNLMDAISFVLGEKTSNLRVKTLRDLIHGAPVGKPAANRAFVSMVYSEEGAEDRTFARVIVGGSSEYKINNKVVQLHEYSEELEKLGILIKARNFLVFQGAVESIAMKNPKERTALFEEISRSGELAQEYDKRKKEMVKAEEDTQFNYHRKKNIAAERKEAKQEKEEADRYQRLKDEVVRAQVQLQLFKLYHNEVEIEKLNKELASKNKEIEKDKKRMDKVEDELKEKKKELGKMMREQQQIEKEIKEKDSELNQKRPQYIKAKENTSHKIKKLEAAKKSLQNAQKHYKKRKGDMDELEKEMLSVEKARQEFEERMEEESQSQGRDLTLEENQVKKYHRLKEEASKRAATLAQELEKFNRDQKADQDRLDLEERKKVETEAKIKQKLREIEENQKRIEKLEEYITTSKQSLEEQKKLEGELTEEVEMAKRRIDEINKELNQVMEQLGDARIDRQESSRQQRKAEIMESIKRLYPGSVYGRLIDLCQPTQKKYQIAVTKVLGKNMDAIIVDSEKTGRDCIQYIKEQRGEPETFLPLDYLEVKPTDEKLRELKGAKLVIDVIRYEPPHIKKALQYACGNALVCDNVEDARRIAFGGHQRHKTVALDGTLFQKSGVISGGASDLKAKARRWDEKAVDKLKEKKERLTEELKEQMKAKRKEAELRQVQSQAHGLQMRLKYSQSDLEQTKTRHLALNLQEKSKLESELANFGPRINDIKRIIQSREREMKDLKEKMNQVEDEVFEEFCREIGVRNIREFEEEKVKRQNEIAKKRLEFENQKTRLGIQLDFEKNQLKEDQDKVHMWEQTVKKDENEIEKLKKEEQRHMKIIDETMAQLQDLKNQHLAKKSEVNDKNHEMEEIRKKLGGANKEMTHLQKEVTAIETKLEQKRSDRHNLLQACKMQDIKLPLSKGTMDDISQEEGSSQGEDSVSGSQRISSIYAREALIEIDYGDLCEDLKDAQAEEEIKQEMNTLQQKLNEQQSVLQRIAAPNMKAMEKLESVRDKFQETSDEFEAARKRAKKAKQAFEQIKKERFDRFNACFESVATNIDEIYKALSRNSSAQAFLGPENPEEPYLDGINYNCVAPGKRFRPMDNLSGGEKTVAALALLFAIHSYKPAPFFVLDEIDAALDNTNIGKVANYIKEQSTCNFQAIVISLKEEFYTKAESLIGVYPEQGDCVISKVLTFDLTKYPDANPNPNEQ
# B1: FLAG3-STAG3-WT (wild-type stromal antigen 3) (protein, UniProt Q9UJ98-1 1-1225)
# chain: MSSPLQRAVGDTKRALSASSSSSASLPFDDRDSNHTSEGNGDSLLADEDTDFEDSLNRNVKKRAAKRPPKTTPVAKHPKKGSRVVHRHSRKQSEPPANDLFNAVKAAKSDMQSLVDEWLDSYKQDQDAGFLELVNFFIQSCGCKGIVTPEMFKKMSNSEIIQHLTEQFNEDSGDYPLIAPGPSWKKFQGSFCEFVRTLVCQCQYSLLYDGFPMDDLISLLTGLSDSQVRAFRHTSTLAAMKLMTSLVKVALQLSVHQDNNQRQYEAERNKGPGQRAPERLESLLEKRKELQEHQEEIEGMMNALFRGVFVHRYRDVLPEIRAICIEEIGCWMQSYSTSFLTDSYLKYIGWTLHDKHREVRLKCVKALKGLYGNRDLTTRLELFTSRFKDRMVSMVMDREYDVAVEAVRLLILILKNMEGVLTDADCESVYPVVYASHRGLASAAGEFLYWKLFYPECEIRMMGGREQRQSPGAQRTFFQLLLSFFVESELHDHAAYLVDSLWDCAGARLKDWEGLTSLLLEKDQNLGDVQESTLIEILVSSARQASEGHPPVGRVTGRKGLTSKERKTQADDRVKLTEHLIPLLPQLLAKFSADAEKVTPLLQLLSCFDLHIYCTGRLEKHLELFLQQLQEVVVKHAEPAVLEAGAHALYLLCNPEFTFFSRADFARSQLVDLLTDRFQQELEELLQSSFLDEDEVYNLAATLKRLSAFYNTHDLTRWELYEPCCQLLQKAVDTGEVPHQVILPALTLVYFSILWTLTHISKSDASQKQLSSLRDRMVAFCELCQSCLSDVDTEIQEQAFVLLSDLLLIFSPQMIVGGRDFLRPLVFFPEATLQSELASFLMDHVFIQPGDLGSGDSQEDHLQIERLHQRRRLLAGFCKLLLYGVLEMDAASDVFKHYNKFYNDYGDIIKETLTRARQIDRSHCSRILLLSLKQLYTELLQEHGPQGLNELPAFIEMRDLARRFALSFGPQQLQNRDLVVMLHKEGIQFSLSELPPAGSSNQPPNLAFLELLSEFSPRLFHQDKQLLLSYLEKCLQHVSQAPGHPWGPVTTYCHSLSPVENTAETSPQVLPSSKRRRVEGPAKPNREDVSSSQEESLQLNSIPPTPTLTSTAVKSRQPLWGLKEMEEEDGSELDFAQGQPVAGTERSRFLGPQYFQTPHNPSGPGLGNQLMRLSLMEEDEEEELEIQDESNEERQDTDMQASSYSSTSERGLDLLDSTELDIEDF
# B2: FLAG3-STAG3-p.293_295del (protein, UniProt Q9UJ98-1 1-1225)
# chain: MSSPLQRAVGDTKRALSASSSSSASLPFDDRDSNHTSEGNGDSLLADEDTDFEDSLNRNVKKRAAKRPPKTTPVAKHPKKGSRVVHRHSRKQSEPPANDLFNAVKAAKSDMQSLVDEWLDSYKQDQDAGFLELVNFFIQSCGCKGIVTPEMFKKMSNSEIIQHLTEQFNEDSGDYPLIAPGPSWKKFQGSFCEFVRTLVCQCQYSLLYDGFPMDDLISLLTGLSDSQVRAFRHTSTLAAMKLMTSLVKVALQLSVHQDNNQRQYEAERNKGPGQRAPERLESLLEKRKELQEEIEGMMNALFRGVFVHRYRDVLPEIRAICIEEIGCWMQSYSTSFLTDSYLKYIGWTLHDKHREVRLKCVKALKGLYGNRDLTTRLELFTSRFKDRMVSMVMDREYDVAVEAVRLLILILKNMEGVLTDADCESVYPVVYASHRGLASAAGEFLYWKLFYPECEIRMMGGREQRQSPGAQRTFFQLLLSFFVESELHDHAAYLVDSLWDCAGARLKDWEGLTSLLLEKDQNLGDVQESTLIEILVSSARQASEGHPPVGRVTGRKGLTSKERKTQADDRVKLTEHLIPLLPQLLAKFSADAEKVTPLLQLLSCFDLHIYCTGRLEKHLELFLQQLQEVVVKHAEPAVLEAGAHALYLLCNPEFTFFSRADFARSQLVDLLTDRFQQELEELLQSSFLDEDEVYNLAATLKRLSAFYNTHDLTRWELYEPCCQLLQKAVDTGEVPHQVILPALTLVYFSILWTLTHISKSDASQKQLSSLRDRMVAFCELCQSCLSDVDTEIQEQAFVLLSDLLLIFSPQMIVGGRDFLRPLVFFPEATLQSELASFLMDHVFIQPGDLGSGDSQEDHLQIERLHQRRRLLAGFCKLLLYGVLEMDAASDVFKHYNKFYNDYGDIIKETLTRARQIDRSHCSRILLLSLKQLYTELLQEHGPQGLNELPAFIEMRDLARRFALSFGPQQLQNRDLVVMLHKEGIQFSLSELPPAGSSNQPPNLAFLELLSEFSPRLFHQDKQLLLSYLEKCLQHVSQAPGHPWGPVTTYCHSLSPVENTAETSPQVLPSSKRRRVEGPAKPNREDVSSSQEESLQLNSIPPTPTLTSTAVKSRQPLWGLKEMEEEDGSELDFAQGQPVAGTERSRFLGPQYFQTPHNPSGPGLGNQLMRLSLMEEDEEEELEIQDESNEERQDTDMQASSYSSTSERGLDLLDSTELDIEDF
# Columns and labels:
# REC8-EGFP = biological target: T1, REC8-EGFP; assay: co-IP; HEK293 cells co-transfected with FLAG3-STAG3 (wild type or mutant) and REC8-EGFP or SMC1A-HA; nocodazole 0.2 ug/ml after 36 h for prometaphase arrest, RIPA lysis 12 h later; Dynabeads Protein G; blots with anti-FLAG, anti-GFP, anti-HA; the precipitating antibody is not stated
# SMC1A-HA = biological target: T2, SMC1A-HA; assay: as above
Binder,binding (REC8-EGFP),binding (SMC1A-HA)
B1,binds,binds
B2,no binding,no binding
